Assay results published in the M2OR odorant receptor database.
This is a selection; strong and weak results do not stand in their true shares. The calls were merged from several studies; some rest on single wells.

Assays:
Conditions in all cases: stereoisomer not certain
[1] = target: T1, OR13C2 (Homo sapiens) (UniProt Q8NGS9)
T1 sequence (whole entry): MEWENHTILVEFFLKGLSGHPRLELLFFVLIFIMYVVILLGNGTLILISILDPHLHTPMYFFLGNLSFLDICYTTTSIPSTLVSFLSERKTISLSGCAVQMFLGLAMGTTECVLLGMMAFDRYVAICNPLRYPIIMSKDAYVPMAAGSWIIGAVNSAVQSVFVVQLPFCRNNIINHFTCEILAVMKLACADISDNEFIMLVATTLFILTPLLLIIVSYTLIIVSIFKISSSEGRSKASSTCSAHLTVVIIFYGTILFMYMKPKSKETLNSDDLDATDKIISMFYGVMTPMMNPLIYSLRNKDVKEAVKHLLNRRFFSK
Outline: (§1)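 Whether a receptor–molecule pair is responsive (active) rests on the original authors' judgment that its measured signal was statistically different from baseline. Pairs without that judgment are non-responsive (inactive). Sources used varied assay methods, commonly transient luciferase assays in mammalian cell lines.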

[2] = target: T2, OR13C3 (Homo sapiens) (UniProt Q8NGS6)
T2 sequence (whole entry): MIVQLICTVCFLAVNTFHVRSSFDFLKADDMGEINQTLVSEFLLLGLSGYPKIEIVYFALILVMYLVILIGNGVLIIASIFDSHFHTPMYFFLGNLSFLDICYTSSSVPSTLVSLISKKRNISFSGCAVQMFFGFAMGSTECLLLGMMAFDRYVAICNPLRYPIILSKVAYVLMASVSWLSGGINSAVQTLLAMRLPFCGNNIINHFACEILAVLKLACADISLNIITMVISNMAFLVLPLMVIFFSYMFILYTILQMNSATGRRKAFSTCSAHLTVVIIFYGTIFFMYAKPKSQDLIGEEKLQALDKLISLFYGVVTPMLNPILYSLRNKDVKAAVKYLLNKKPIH
Outline: as §1

[3] = target: T3, OR13C4 (Homo sapiens) (UniProt Q8NGS5)
T3 sequence (whole entry): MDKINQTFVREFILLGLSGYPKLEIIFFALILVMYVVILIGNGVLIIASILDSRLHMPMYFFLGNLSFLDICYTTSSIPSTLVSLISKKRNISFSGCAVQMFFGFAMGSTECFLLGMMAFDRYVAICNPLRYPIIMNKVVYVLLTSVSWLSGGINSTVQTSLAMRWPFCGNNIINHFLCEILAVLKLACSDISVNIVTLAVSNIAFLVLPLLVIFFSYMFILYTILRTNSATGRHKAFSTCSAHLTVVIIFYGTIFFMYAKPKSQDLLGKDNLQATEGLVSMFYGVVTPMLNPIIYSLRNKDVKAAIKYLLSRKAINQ
Outline: as §1

[4] = target: T4, OR13C8 (Homo sapiens) (UniProt Q8NGS7)
T4 sequence (whole entry): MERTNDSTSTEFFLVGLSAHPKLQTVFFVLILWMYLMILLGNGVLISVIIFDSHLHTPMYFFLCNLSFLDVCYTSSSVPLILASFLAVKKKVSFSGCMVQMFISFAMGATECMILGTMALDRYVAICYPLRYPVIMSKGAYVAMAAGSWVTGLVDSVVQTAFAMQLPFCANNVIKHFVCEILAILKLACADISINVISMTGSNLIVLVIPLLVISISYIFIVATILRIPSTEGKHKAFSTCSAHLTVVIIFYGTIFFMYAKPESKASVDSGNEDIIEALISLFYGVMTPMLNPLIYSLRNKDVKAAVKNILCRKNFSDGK
Outline: as §1

[5] = target: T5, OR13H1 (Homo sapiens) (UniProt Q8NG92)
T5 sequence (whole entry): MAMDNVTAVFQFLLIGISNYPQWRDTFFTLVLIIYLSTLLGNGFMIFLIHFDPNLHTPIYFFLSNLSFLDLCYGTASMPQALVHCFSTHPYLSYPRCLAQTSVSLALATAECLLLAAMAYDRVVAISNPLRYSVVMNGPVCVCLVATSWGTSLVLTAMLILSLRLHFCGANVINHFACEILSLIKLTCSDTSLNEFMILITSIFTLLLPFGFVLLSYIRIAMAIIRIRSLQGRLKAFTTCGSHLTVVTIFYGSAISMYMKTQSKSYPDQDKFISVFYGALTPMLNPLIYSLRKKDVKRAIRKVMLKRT
Outline: as §1
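Further: active if original authors judged signal statistically different from baseline.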

Row | Compound | odorant receptor agonist call [1] | odorant receptor agonist call [2] | odorant receptor agonist call [3] | odorant receptor agonist call [4] | odorant receptor agonist call [5]
1 | CC12CCC(CC1)C(C)(C)O2 | inactive | inactive | inactive | inactive | inactive
2 | CC(C)(O)CCCC1=CCC(C=O)CC1 (configuration not stated) | inactive |  | inactive |  | 
3 | CC1=NC(C)SC1C (configuration not stated) |  | inactive | inactive | inactive | inactive
4 | O=C1CCCCCCCCCCCC(=O)OCCO1 | active | inactive | inactive | inactive | inactive
5 | CC(=O)C(C)=O | inactive | inactive | inactive | inactive | inactive
6 | CCCCCCCC=O | inactive | inactive | inactive | inactive | inactive
7 | CCC=CCCO | inactive | inactive | inactive | inactive | inactive
8 | CC(C)(C)c1ccc(CCC=O)cc1 | inactive | inactive | inactive | inactive | inactive
9 | CC(=O)OC(C)(C)C1CC=C(C)CC1 (configuration not stated) | inactive | inactive | inactive | inactive | inactive
10 | CC(C)C(=O)O | inactive | inactive | inactive | inactive | inactive
11 | O=C1CCCCCCCCCCCCCCO1 | inactive | inactive | inactive | inactive | inactive
12 | O=C1CCCCC1 |  | inactive | inactive | inactive | inactive
13 | CCCCCOC(C)=O | inactive | inactive | inactive | active | inactive
14 | CC(=O)c1ccccc1 |  | inactive | inactive | inactive | inactive
15 | COc1cc(C=O)ccc1O | inactive | inactive | inactive | inactive | inactive
16 | CCCC(=O)O | inactive | inactive | inactive | inactive | inactive
17 | CCCCCCCCCC=O | inactive | inactive | inactive | inactive | inactive
18 | CCCCCCOC(=O)CCC | inactive | inactive | inactive | inactive | inactive
19 | COC(=O)c1ccccc1O | inactive | inactive | inactive | inactive | inactive
20 | CC(C)C=O | inactive | inactive | active | inactive | inactive
21 | CCCCCC(=O)O | inactive | inactive | inactive | inactive | inactive
22 | CC1COCc2cc3c(cc21)C(C)(C)C(C)C3(C)C (configuration not stated) | inactive | active | active | inactive | active
23 | CC(=O)OCC=C(C)CCC=C(C)C | active | inactive | inactive | inactive | inactive
24 | C=CCSCC=C | inactive | inactive | inactive | inactive | inactive
25 | COC(=O)c1ccccc1 |  | inactive | inactive | inactive | inactive
26 | CCCCCC(C)=O |  | inactive | inactive | inactive | inactive

Whole records as entered above. Order of values: odorant receptor agonist call [1] | odorant receptor agonist call [2] | odorant receptor agonist call [3] | odorant receptor agonist call [4] | odorant receptor agonist call [5]
`O=C1CCCCCCCCCCCCCCO1` is listed as inactive | inactive | inactive | inactive | inactive
`CC(C)C=O` is listed as inactive | inactive | active | inactive | inactive
